Results reported in patent publication US20240082281A1, “ANTI-INFLAMMATORY PHYTONUTRIENTS FOR USE IN THE TREATMENT OR PREVENTION OF SYNOVITIS” (SOCIÉTÉ DES PRODUITS NESTLÉ S.A., priority 2013, published 2024).
“Also recorded” adds a separate entry of the source. At least one compound was matched to its structure with a doubt left.

Columns and labels:
MMP-13 = MMP-13 mRNA expression (real-time PCR, relative to GAPDH) in bovine primary chondrocytes in alginate beads; assay type: cell-based, Bos Taurus; conditions: 1.5 μM each, 3 days
[1] = tested on: Primary osteoblasts from the calvaria of newborn Wistar rats; assay: Alkaline phosphatase (ALP) activity of primary osteoblasts; assay type: cell-based, rat; conditions: day 15; 1 μM OLP, 1 μM HTy, 10^−9 M 1,25(OH)2D3; vs C−
Procedure: Alkaline phosphatase activity of osteoblasts and potentiation of effect by vitamin D were investigated. Primary osteoblasts were isolated from the calvaria of newborn Wistar rats by enzymatic digestion as described by […] et al. in 2004. During all experiments, cells were maintained in α-minimal essential medium with 10% heat-inactivated fetal bovine serum and 1% penicillin/streptomycin under conditions of 5% CO2 and 37° C. Cells were seeded on Coll-1-coated 96-well plates at a density of 3500 cells/well or in 24-well plates at a density of 3×10^4 cells/well and cultured for 2 days in α-MEM to reach confluence. Cells were then exposed to different conditions: minimal medium (C-), minimal medium containing 50 μg/ml ascorbic acid, 5 mM β-glycerophosphate (C+; optimized medium), and minimal medium supplemented with 1 μM oleuropein (OLP) and/or 1 μM hydroxytyrosol (HTy) and/or 10^-9 M 1,25 dihydroxivitamin […] dissolved in dimethylsulfoxide (DMSO) and 1,25(OH)2D3 was dissolved in ethanol. […] Enzymatic activity of alkaline phosphatase (ALP) was measured kinetically on Treatment Days 0, 5, 9, 12 and 15. […] Absorbance was measured at 405 nm and 30° C., and every 2 min 30 s for 30 min using a VarioSklan Flash microplate reader. ALP activity was expressed as micromoles of p-NPP per hour per milligram of protein. […] Data were expressed as mean±SEM. […]. […]

ADAMTS-5 = ADAMTS-5 mRNA expression (real-time PCR, relative to GAPDH) in bovine primary chondrocytes in alginate beads; assay type: cell-based, Bos Taurus; conditions: 1.5 μM each, 3 days
PGE2 = PGE2 in guinea pig serum by competitive ELISA; assay type: in vivo; conditions: in diet 31 weeks, week 35, vs control group
[2] = tested on: Dunkin-Hartley guinea pigs; assay: Spontaneous osteoarthritis in Dunkin-Hartley guinea pigs: histological OA score and synovial score (OARSI); assay type: in vivo, guinea pig; conditions: week 35, vs control group; for total OA score (histological cartilage score): in diet 31 weeks (oleuropein 0.025%, rutin 0.5%, curcumin 0.25%), p<0.01
Procedure: An in vivo study of spontaneous development of osteoarthritis in Dunkin-Hartley guinea pigs was performed. Sixty-five male Dunkin-Hartley guinea-pigs aged 3 weeks were obtained from Charles River Laboratories (Paris). Animals were housed 5 per cage in solid bottom cages and fed with standard guinea-pig diet and water ad libitum. All animals were allowed one week for acclimatization to housing conditions prior to phytonutrients administration. PVC pipes were added to the cages to improve housing conditions and minimize stress.
Substantially purified oleuropein (>90%) was purchased from Extrasynthese (Genay, France). Substantially purified rutin (>94%) was purchased from Sigma-Aldrich (Buchs, Switzerland).
Oleuropein, rutin and curcumin were integrated in the diet. Animals were weighed each week and identification was made by microchip. Food intake was controlled at W9, W15, W21, W26 and W34 by weighing daily quantities of food added and remaining.
After weighing, animal euthanasia was performed after intracardiac blood puncture under sodium pentobarbital 100 mg/kg. […] Liver and adrenal glands were weighed. The right knee joint from each animal was fixed for 24 h in 4% buffered paraformaldehyde, followed by decalcification in HCl acid (DC2, Labonord, Belgium) for 4 h at 4° C. before paraffin embedding.
Paraffin embedded right knees were cut with a microtome (Leica) in 6 μm sections, in the central area not covered by meniscus, following the Cushin plane, as recommended by OARSI. Three sections at 200 μm interval were stained with hematoxylin, fast green and safranin-O, and one supplementary central section was stained with toluidine blue. Each compartment of the section (tibial median, tibial lateral, femoral median and femoral lateral) was scored by two blinded trained experts following OARSI recommendation and to assess the global cartilage score, each compartment score was added. Lateral and medial synovial membranes were scored by 2 blinded trained experts following OARSI recommendation (Table 2) and the mean of lateral and membrane was calculated to assess the global synovial score.
The results (mean±SD) were calculated for each parameter. Following a normality test, a parametric ANOVA with Dunnett's post-test or Pearson correlation was performed on all the experiments. *p<0.05; **<0.01; ***p<0.001.

Fibulin 3-1 = assay: Fib3-1 in guinea pig sera by competitive ELISA; assay type: in vivo; conditions: in diet 31 weeks; vs control group
Col12-1NO2 = Col12-1NO2 in guinea-pig sera by competitive ELISA; assay type: in vivo; conditions: in diet 31 weeks, vs control group
[3] = disease conditions (presence of IL1a 10 ng/ml), vs IL1a
[4] = normal conditions (absence of IL1a), vs CTL−

| Structure (SMILES) | MMP-13 mRNA expression relative to GAPDH (MMP-13; [3]) | MMP-13 mRNA expression relative to GAPDH (MMP-13; [4]) | alkaline phosphatase (ALP) activity / osteoblast activity [1] | ADAMTS-5 mRNA expression relative to GAPDH (ADAMTS-5; [3]) | ADAMTS-5 mRNA expression relative to GAPDH (ADAMTS-5; [4]) | PGE2 levels in plasma/serum (PGE2) | total OA score (histological cartilage score) [2] | Fibulin 3-1 levels in plasma/serum (Fibulin 3-1) | Col12-1NO2 levels in plasma/serum (collagen breakdown) (Col12-1NO2) | PGE2 levels in plasma/serum (PGE2; listed as Oleuropein) | total OA score (histological cartilage score) ([2]; listed as Oleuropein) | synovial score (synovitis; lining cell hyperplasia, cellular infiltration) ([2]; in diet 31 weeks, p<0.05) | Col12-1NO2 levels in plasma/serum (collagen breakdown) (Col12-1NO2; listed as Oleuropein) |
| --- | --- | --- | --- | --- | --- | --- | --- | --- | --- | --- | --- | --- | --- |
| OCCc1ccc(O)c(O)c1 [hydroxytyrosol] | decrease expression of MMP-13 | decrease expression of MMP-13 | small increase | decrease expression of ADAMTS-5 | decrease expression of ADAMTS-5 |  |  |  |  |  |  |  |  |
| C[C@@H]1O[C@@H](OC[C@H]2O[C@@H](Oc3c(-c4ccc(O)c(O)c4)oc4cc(O)cc(O)c4c3=O)[C@H](O)[C@@H](O)[C@@H]2O)[C@H](O)[C@H](O)[C@H]1O [rutin] |  |  |  |  |  | only non-significant effect | significant decrease; also recorded: can decrease OA score; also recorded: decreasing cartilage degradation and histological OA score | can decrease Fibulin 3-1 levels | can decrease collagen breakdown |  |  |  |  |
| C/C=C1/[C@H](O[C@@H]2O[C@H](CO)[C@@H](O)[C@H](O)[C@H]2O)OC=C(C(=O)OC)[C@H]1CC(=O)OCCc1ccc(O)c(O)c1 [oleuropein] | decrease expression of MMP-13 | decrease expression of MMP-13 | small increase | decrease expression of ADAMTS-5 | decrease expression of ADAMTS-5 | importantly reduced | decreasing cartilage degradation and histological OA score |  | importantly reduced | can decrease PGE2 levels | significant decrease; also recorded: can decrease OA score | can decrease synotivis; also recorded: significant decrease of the synovial modification | can decrease collagen breakdown |
